This is an account of results in PMC7990198.

The experiment addresses T1, Full-length Sds21 fused to the Gal4 BD (S. pombe) (UniProt P23880).
T1 sequence: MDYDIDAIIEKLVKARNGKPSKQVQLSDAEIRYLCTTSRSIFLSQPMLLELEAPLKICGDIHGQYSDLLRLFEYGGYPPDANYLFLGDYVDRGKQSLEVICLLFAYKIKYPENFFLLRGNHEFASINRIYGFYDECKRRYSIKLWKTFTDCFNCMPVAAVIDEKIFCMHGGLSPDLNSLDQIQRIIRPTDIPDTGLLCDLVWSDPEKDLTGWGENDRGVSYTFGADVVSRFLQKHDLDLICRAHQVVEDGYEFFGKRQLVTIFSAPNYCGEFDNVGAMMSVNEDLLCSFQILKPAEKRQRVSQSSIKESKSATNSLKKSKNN
Description: two-hybrid; Gal4 AD fusions of Ppn1 (pACT2.1) with Gal4 BD fusions of Dis2, Swd22 or Sds21 (pAS2-1) in S. cerevisiae Y190; two reporters: lacZ (X-gal filter lift, 30°C, up to 6 h) and histidine prototrophy (growth on -trp-leu-his + 50 mM 3AT).

These are yes or no findings as the source states them, for the method shown. Binding can be weak; no strength is given. Where a sequence is shown, tags or fusion partners need not be part of it.

Consider “Full-length AD-Ppn1 D515A-L516A double-mutant (S. pombe)”, for which the binding result is “binds”.
Take “Full-length AD-Ppn1 S507D-S509D double-mutation (S. pombe)”: the binding entry is given as “no binding”.
Turning to Full-length AD-Ppn1 V508A (S. pombe), the binding result was “no binding”.
Full-length AD-Ppn1 W510A (S. pombe): the binding entry is “no binding”.
Turning to “Full-length Ppn1 (aa 1–710) fused to the Gal4 AD (S. pombe)”, the binding result is “binds”.
